# Measurements taken from patent US7118885B2, “Nucleic acid encoding vitamin D receptor related polypeptide” (Pfizer Inc., priority 1997, dated 2006).
# Some results were stated once for a whole list of compounds, not compound by compound. At least one structure is not confirmed: it was looked up by name or label, or the drawing left a doubt.
# Biological target: T1, VDRRγ (Homo sapiens, UniProt O75469)
# T1 sequence (O75469 1-434): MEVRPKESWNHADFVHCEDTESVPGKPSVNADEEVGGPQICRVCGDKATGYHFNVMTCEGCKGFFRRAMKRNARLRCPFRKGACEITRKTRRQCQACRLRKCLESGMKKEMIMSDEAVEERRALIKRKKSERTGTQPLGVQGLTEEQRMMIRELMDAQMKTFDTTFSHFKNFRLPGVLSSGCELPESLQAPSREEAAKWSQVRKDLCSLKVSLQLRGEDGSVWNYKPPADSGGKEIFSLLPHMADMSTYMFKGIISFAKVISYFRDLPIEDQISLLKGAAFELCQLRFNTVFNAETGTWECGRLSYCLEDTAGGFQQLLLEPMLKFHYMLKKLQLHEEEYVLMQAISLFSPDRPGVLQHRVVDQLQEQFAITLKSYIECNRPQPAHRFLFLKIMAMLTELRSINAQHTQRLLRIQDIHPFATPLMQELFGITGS
# Assay: VDRRγ reporter gene assay in transiently transfected Caco-2 (TC7) cells
# Conditions: FIG. 10
# Protocol: For identifying activators or ligands for VDRRγ, a library of substances structurally biased towards different classes of activators and ligands for nuclear receptors were tested. The activation of VDRRγ was analyzed in a reporter gene assay in transiently Caco-2 (TC7) cells (Carriere et al, 1994).
row,Structure (SMILES),activation of VDRRγ [fold]
1,"CC(=O)[C@H]1CC[C@H]2[C@@H]3CC[C@@H]4CC(=O)CC[C@]4(C)[C@H]3CC[C@]12C [5β-pregnane-3,20-dione]",5 to 12
2,"C[C@@H](O)[C@H]1CC[C@H]2[C@@H]3CC[C@@H]4C[C@H](O)CC[C@]4(C)[C@H]3CC[C@]12C [5β-pregnane-3α,20β-diol]",5 to 12
